Reference: the supplement of paper PMC3334620
The full ranking holds about 33,000 sequences; the median of “E-score (-0.5 to 0.5)” is about -0.015, and the highest 2% start at about 0.3. The list shows a part of the results.

molecular target: T1, Abf1 (UniProt P14164); assay: PBM E-score (8-mer binding enrichment) (E-score (-0.5 to 0.5)); higher = stronger / more preferred TF binding; details: protein concentration: 200 nM; construct: GST-full length
T1 sequence: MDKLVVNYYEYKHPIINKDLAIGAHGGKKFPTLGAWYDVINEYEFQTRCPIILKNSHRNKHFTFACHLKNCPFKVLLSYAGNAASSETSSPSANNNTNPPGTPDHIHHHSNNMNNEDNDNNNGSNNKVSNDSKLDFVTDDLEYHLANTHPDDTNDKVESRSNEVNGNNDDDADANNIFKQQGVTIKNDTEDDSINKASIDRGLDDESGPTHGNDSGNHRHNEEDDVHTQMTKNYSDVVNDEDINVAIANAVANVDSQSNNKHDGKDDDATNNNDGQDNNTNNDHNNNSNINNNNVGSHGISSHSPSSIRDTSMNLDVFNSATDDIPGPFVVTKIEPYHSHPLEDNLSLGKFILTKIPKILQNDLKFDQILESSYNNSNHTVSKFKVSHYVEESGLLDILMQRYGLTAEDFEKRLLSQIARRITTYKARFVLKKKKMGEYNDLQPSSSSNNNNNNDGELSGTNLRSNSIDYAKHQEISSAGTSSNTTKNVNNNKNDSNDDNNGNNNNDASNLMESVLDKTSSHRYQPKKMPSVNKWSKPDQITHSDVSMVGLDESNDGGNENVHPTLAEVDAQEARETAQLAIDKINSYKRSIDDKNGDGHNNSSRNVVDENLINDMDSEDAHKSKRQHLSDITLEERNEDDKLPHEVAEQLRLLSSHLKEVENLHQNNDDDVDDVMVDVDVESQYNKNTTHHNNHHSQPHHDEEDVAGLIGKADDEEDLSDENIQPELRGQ
Protocol: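 Universal 'all 10-mer' protein binding microarrays (Agilent AMADID 015681) probed with GST-tagged S. cerevisiae TFs (full-length or DBD) made by in vitro transcription/translation (PURExpress), about 100-200 nM. Bound TF was detected with fluorescent anti-GST. Each ungapped 8-mer (which stands for itself and its reverse complement) is scored by the PBM enrichment score (E-score), a modified Wilcoxon-Mann-Whitney statistic from -0.5 to +0.5, computed with the Universal PBM Analysis Suite. Scale: above 0.35 generally sequence-specific binding.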

| Sequence | PBM E-score |
| --- | --- |
| AGTCCCCA | -0.169 |
| AAAAGGGT | 0.121 |
| TCGGATAA | -0.00732 |
| TCTTATAA | 0.0702 |
| CTTCGCGA | 0.00718 |
| CGGTCAGA | 0.00393 |
| CGCGTAAC | -0.0527 |
| CAGCGCTC | -0.0234 |
| TCACTCCA | 0.192 |
| ATTAAAGC | 0.0349 |
| CGTTATAA | 0.149 |
| AGCAGTTC | -0.104 |
| AAATGGAC | 0.0432 |
| TCAGGTAA | -0.00487 |
| AGGCCATC | -0.122 |
| TACGGGGA | 0.0819 |
| ATCAGCCA | -0.113 |
| CTAATGTC | 0.026 |
| ATATCCGC | 0.0461 |
| AGTTGTTC | 0.076 |
| CAAAAAGG | 0.0204 |
| AGACTGTG | -0.114 |

| Sequence | PBM E-score |
| --- | --- |
| GTACGGAA | 0.278 |
| CAGCCTGG | -0.181 |
| ATATCGGA | 0.228 |
| CTCCTACC | -0.206 |
| TACCCGTA | 0.0422 |
| ACCAAAAT | 0.175 |
| CATGCATC | 0.0494 |
| CGATAACG | 0.0981 |
| CAGATACA | 0.0289 |
| AGGCCAGC | -0.239 |
| GATAACGC | 0.029 |
| CTCAAGTA | -0.0147 |
| ACCCCGGC | -0.243 |
| ACCCCCCC | -0.359 |
| CCTGCGGA | -0.0432 |
| TAGGTACA | 0.0831 |
| CAACATCA | 0.203 |
| ACGTTTAT | 0.203 |
| AGCAGACG | 0.0241 |
| GTCTTTGA | -0.0341 |
| CCACGATC | 0.335 |
| CGCTGCCA | -0.146 |

Looked up one by one from above, 3 records:

| Sequence | PBM E-score |
| --- | --- |
| ATATCCGC | 0.0461 |
| CGCTGCCA | -0.146 |
| ATTAAAGC | 0.0349 |

Continuation:

| Sequence | PBM E-score |
| --- | --- |
| AGGCGTTC | -0.191 |
| ATTCGAGC | 0.0465 |
| TATAGACA | 0.0187 |
| GTATGAAA | 0.192 |
| GGATTGAA | 0.0519 |
| GATGAGGA | 0.144 |
| ACAGGGTA | -0.0317 |
| AAGTAACG | 0.235 |
| GGGGGGGA | -0.342 |
| AAGTTAGT | 0.0432 |
| GGGGGTAA | -0.353 |
| ATGGATAG | -0.0516 |
| ATAGACAA | 0.111 |
| AGTTGCGC | 0.135 |
| GGGGACAA | -0.153 |
| AACTACTG | -0.0751 |
| CACGAGTA | 0.0993 |
| TCACATGA | 0.0551 |
| GAATACGA | 0.253 |
| AACAGGGT | -0.245 |
| CCCCTGCC | -0.214 |
| ATTGGAGA | 0.141 |

| Sequence | PBM E-score |
| --- | --- |
| CGGTGCGA | 0.0363 |
| AATTGGAA | 0.00386 |
| CGATGCCC | -0.136 |
| CCAGACGG | -0.0274 |
| ACAACTCA | 0.0458 |
| AGAGGTTA | -0.146 |
| AATTCGAT | 0.122 |
| ACGTGGGA | 0.00847 |
| GTACTCAA | 0.0951 |
| AGGCTATC | -0.13 |
| AATAGGAA | 0.127 |
| CCGCTATA | -0.179 |
| TGCCGAAA | 0.101 |
| AATCACCG | 0.253 |
| CCAGAGAG | -0.16 |
| CGCTGGCC | -0.349 |
| GTAGCCAA | 0.047 |
| GTAGGCGA | 0.111 |
| AAACCGTT | -0.0156 |
| CGAGAGTA | -0.0361 |
